In publication PMC8807357:
No constants are given. Whether binding was seen depends on the method and setting. Binding seen in cells or lysates may run through a third protein. Some results given as binding are weak or reduced against the parent protein; the word gives no strength.

Amino acid sequences for entries named in this document (tags omitted).
UniProt P38936: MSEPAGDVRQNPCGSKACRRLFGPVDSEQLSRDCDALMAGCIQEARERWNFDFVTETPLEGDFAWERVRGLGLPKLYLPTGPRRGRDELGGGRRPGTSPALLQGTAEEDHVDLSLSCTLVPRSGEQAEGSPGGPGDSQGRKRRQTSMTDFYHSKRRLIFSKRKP
UniProt Q12834: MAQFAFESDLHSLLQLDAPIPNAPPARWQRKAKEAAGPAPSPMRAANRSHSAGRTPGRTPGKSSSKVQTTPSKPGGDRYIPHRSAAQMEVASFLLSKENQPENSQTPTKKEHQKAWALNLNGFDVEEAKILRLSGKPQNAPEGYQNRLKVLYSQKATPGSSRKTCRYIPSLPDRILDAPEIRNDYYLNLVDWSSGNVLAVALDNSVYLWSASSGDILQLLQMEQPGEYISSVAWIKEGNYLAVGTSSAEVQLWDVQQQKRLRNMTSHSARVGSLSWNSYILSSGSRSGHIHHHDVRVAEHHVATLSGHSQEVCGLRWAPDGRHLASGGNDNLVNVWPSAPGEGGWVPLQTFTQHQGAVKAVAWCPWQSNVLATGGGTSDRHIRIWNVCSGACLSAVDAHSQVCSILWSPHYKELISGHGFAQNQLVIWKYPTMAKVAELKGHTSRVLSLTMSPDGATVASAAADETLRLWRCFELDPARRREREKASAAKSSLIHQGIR

Target: cyclin-dependent kinase inhibitor 1A (P21) (human (endogenous in Ishikawa and HEC-1A)) (UniProt P38936)
Assay: co-IP; Ishikawa and HEC-1A cells transiently transfected with CDC20-Myc, with or without ZXF1 (lncRNA) overexpression; lysed in NETN buffer (20 mM Tris/HCl pH 8.0, 100 mM NaCl, 1 mM EDTA, 0.5% NP-40); lysate with Protein A/G agarose beads and antibodies overnight; western blotting

binding: binds
Substance: cell division cycle protein 20 (CDC20), Myc-tagged (from UniProt Q12834 1-499)
